No constants are given. Whether binding was seen depends on the method and setting. Binding can be weak; no strength is given.
B1: AS142077 (scFv)
scFv (VL-linker-VH): SYELTQPSAMSVSLGETTRITCQGGNIESSYASWYQQKPGQAPALVIYEDSERPSRIPERFSGSSSGGTATLTISGAQAEDEADYYCQSADSSGYNPVFGGGTHLTVLGGGGSGGGGSGGGGSQVQLVESGGGLVQPGGSLRLSCAASGFTFSSYAMSWVRQAPGKGLEWVSGINSGGGSTYYADSVKGRFTISRDNAKNTLYLQLNSLKTEDTAMYYCAKHLLIIYSDYDVRGSEALDAWGQGTLVTVSS
notes: Format as for f1; also called anti-CD33 IgG1 AS142077; AS142077 scFv
B2: AS188893 (scFv)
scFv (VL-linker-VH): SYELTQPSAVSVSLGQTARITCQGGNLGTSYVHWYQQKPGQAPVLVIYGDDSRPSGIPERFSGSSSGGTATLTISGAQAEDEADYYCQSYDSSSSVFGGGTHLTVLGGGGSGGGGSGGGGSQVQLQESGGGLVQPGGSLRLSCAASGFTFSNNWMYWVRQAPGKGLEWVSSIATGDGSTNSADSVKGRFTISRDNTKNMLYLQMNSLKSEDTALYYCAKGVNIDHDVGAGDYWGQGTQVTVSS
notes: Format as for f1; also called anti-CD33 IgG1 AS188893; AS188893 scFv

Target: Cyno CD33 (Macaca fascicularis)
Assay: +/- column 'Cyno CD33' of the drawn table; legend: cell binding properties; assay not named on the sheet

Binder	binding
B1	binds
B2	binds
